# Results are given in words; binding and its absence hold for the method and conditions named. In cells and extracts the contact can be indirect. Some binding calls cover weakened binding; strength is not graded here. Tags and fused reporters may be left off the sequences shown.
# T1: myc-tagged Ino2 (S. cerevisiae (endogenous locus, strains derived from CRY1)) (UniProt P26798)
# T1 sequence: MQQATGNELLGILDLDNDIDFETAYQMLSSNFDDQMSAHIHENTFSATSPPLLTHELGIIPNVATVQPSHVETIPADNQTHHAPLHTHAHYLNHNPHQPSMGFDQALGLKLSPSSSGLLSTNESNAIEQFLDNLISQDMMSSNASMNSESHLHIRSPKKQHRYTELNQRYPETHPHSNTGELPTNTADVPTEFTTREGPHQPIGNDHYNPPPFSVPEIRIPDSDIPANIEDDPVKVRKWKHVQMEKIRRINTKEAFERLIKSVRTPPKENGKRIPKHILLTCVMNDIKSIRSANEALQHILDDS
# Molecular target: T1, myc-tagged Ino2 (S. cerevisiae (endogenous locus, strains derived from CRY1))
# Experiment: co-IP; whole cell extract in IP buffer (50 mM Hepes-KOH pH 6.8, 150 mM potassium acetate, 2 mM magnesium acetate), 1% Triton X-100; anti-myc agarose 4 h at 4 °C, five washes; blot with anti-HA; cells grown with or without 1 μg/ml tunicamycin for 4.5 h
binder,measurement,value
"HA-tagged Ino4 (protein, UniProt P13902 1-151) MTNDIKEIQTIQPGLSEIKEIKGELANVKKRKRRSKKINKLTDGQIRINHVSSEKKRRELERAIFDELVAVVPDLQPQESRSELIIYLKSLSYLSWLYERNEKLRKQIIAKHEAKTGSSSSSDPVQEQNGNIRDLVPKELIWELGDGQSGQ",binding,binds
